These are yes or no findings as the source states them, for the method shown. Binding seen in cells or lysates may run through a third protein. These calls come from enrichment with a bait or labelling near it, and not all partners need be listed.
Target: methyltransferase-like 14 (METTL14), endogenous (human (endogenous in HUVECs)) (UniProt Q9HCE5)
Test: affinity purification with mass spectrometry; endogenous METTL14 complex precipitated with anti-METTL14 beads (blocked agarose beads as negative control), 4 °C, 1 mg input protein, SDS-PAGE, silver stain, LC-MS/MS; results say HUVECs, methods say 293T nuclear extracts

The chains behind the UniProt entries cited, without tags or fusion partners.
UniProt Q9HCE5: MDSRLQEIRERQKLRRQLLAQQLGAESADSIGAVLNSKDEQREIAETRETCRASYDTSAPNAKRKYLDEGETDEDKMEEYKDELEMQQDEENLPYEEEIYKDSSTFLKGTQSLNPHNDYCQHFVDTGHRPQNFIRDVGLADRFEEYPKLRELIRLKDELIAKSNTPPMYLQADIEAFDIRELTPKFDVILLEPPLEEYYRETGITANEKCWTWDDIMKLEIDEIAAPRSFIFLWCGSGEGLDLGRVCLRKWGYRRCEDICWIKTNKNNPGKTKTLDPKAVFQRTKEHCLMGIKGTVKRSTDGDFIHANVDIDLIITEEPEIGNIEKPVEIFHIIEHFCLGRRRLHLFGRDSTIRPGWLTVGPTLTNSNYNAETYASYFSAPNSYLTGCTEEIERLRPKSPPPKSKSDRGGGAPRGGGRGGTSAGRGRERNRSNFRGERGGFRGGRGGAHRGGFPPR
UniProt Q12778: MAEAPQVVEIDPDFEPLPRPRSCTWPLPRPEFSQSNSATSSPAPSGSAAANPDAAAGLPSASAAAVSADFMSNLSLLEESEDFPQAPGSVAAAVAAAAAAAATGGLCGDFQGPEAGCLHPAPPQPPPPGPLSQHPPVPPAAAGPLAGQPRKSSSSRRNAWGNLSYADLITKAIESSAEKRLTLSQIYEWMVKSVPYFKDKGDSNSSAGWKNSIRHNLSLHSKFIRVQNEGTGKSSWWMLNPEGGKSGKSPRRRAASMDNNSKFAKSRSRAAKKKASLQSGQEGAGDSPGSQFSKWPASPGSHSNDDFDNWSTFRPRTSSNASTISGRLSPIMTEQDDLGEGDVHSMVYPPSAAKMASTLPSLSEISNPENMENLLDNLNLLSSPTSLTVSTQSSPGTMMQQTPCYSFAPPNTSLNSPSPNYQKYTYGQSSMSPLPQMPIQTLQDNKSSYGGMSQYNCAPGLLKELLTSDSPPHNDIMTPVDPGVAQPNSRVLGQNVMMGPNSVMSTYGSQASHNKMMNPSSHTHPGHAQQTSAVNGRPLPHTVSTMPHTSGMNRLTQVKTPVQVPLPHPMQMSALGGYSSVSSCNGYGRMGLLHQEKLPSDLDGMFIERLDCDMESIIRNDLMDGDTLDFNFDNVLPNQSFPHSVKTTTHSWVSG

- binding: binds
Substance: forkhead box O1 (FOXO1), endogenous (from UniProt Q12778 1-655)
